Two molecules from article doi:10.1101/2020.06.08.139675 can be followed below.

The chains behind the UniProt entries cited, without tags or fusion partners. Residues count along the entry.
UniProt Q5S007, residues 1-552: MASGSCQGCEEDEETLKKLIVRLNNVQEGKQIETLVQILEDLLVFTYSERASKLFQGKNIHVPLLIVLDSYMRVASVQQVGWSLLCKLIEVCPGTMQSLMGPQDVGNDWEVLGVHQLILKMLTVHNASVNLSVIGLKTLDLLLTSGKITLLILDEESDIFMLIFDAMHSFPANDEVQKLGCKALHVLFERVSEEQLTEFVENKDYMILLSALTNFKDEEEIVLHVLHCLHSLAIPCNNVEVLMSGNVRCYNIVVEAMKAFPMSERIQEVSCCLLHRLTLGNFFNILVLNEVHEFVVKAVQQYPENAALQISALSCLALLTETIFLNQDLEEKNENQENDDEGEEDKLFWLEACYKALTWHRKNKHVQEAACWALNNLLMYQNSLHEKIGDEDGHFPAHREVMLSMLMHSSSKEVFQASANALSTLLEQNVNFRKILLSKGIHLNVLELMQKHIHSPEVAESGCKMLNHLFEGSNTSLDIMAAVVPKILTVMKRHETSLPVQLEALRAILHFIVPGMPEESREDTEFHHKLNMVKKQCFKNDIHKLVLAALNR

Results are given in words; binding and its absence hold for the method and conditions named. Binding seen in cells or lysates may run through a third protein. Some results given as binding are weak or reduced against the parent protein; the word gives no strength.

In this assay the target is 6-His LRRK2 1-552 (UniProt Q5S007). Kind of assay: pull-down.

B1: transgenic Rab29 (protein, UniProt Q91YQ1 1-204)
chain: MGSRDHLFKVLVVGDAAVGKTSLVQRYSQDSFSKHYKSTVGVDFALKVLQWSDSEMVRLQLWDIAGQERFTSMTRLYYRDASACVIMFDVTNATTFSNSQRWKQDLDSKLTLPSGEPVPCLLLANKSDLSPWAVSRDQIDRFSKENGFTGWTETSVKENKNINEAMRVLVEKMMNNSREDVMSLSTQGNYINLQAKPSSGWTCC
Turning to B1, the binding entry is given as “binds”.

B2: endogenously expressed wildtype Rab29 (protein, UniProt Q91YQ1 1-204)
chain: MGSRDHLFKVLVVGDAAVGKTSLVQRYSQDSFSKHYKSTVGVDFALKVLQWSDSEMVRLQLWDIAGQERFTSMTRLYYRDASACVIMFDVTNATTFSNSQRWKQDLDSKLTLPSGEPVPCLLLANKSDLSPWAVSRDQIDRFSKENGFTGWTETSVKENKNINEAMRVLVEKMMNNSREDVMSLSTQGNYINLQAKPSSGWTCC
As for B2, the binding result is “binds”.
